Some of the results follow. Small differences around the control level are noise.
Compound: Cc1nc(Nc2ncc(C(=O)Nc3c(C)cccc3Cl)s2)cc(N2CCN(CCO)CC2)n1 [dasatinib]
Assay: log2 fold change of tryptic peptide abundance, ligand vs vehicle (limited proteolysis) (log2 ratio); higher = more trypsin-susceptible (destabilized)
Conditions: ligand concentration: 5 uM; sample: K562 cleared lysate

Protein sequences, listed by entry. Tags and fused reporters are not part of them. Lines headed by an entry give the natural chain unless they say otherwise; changes in a name come on top.
UniProt Q9UPS8: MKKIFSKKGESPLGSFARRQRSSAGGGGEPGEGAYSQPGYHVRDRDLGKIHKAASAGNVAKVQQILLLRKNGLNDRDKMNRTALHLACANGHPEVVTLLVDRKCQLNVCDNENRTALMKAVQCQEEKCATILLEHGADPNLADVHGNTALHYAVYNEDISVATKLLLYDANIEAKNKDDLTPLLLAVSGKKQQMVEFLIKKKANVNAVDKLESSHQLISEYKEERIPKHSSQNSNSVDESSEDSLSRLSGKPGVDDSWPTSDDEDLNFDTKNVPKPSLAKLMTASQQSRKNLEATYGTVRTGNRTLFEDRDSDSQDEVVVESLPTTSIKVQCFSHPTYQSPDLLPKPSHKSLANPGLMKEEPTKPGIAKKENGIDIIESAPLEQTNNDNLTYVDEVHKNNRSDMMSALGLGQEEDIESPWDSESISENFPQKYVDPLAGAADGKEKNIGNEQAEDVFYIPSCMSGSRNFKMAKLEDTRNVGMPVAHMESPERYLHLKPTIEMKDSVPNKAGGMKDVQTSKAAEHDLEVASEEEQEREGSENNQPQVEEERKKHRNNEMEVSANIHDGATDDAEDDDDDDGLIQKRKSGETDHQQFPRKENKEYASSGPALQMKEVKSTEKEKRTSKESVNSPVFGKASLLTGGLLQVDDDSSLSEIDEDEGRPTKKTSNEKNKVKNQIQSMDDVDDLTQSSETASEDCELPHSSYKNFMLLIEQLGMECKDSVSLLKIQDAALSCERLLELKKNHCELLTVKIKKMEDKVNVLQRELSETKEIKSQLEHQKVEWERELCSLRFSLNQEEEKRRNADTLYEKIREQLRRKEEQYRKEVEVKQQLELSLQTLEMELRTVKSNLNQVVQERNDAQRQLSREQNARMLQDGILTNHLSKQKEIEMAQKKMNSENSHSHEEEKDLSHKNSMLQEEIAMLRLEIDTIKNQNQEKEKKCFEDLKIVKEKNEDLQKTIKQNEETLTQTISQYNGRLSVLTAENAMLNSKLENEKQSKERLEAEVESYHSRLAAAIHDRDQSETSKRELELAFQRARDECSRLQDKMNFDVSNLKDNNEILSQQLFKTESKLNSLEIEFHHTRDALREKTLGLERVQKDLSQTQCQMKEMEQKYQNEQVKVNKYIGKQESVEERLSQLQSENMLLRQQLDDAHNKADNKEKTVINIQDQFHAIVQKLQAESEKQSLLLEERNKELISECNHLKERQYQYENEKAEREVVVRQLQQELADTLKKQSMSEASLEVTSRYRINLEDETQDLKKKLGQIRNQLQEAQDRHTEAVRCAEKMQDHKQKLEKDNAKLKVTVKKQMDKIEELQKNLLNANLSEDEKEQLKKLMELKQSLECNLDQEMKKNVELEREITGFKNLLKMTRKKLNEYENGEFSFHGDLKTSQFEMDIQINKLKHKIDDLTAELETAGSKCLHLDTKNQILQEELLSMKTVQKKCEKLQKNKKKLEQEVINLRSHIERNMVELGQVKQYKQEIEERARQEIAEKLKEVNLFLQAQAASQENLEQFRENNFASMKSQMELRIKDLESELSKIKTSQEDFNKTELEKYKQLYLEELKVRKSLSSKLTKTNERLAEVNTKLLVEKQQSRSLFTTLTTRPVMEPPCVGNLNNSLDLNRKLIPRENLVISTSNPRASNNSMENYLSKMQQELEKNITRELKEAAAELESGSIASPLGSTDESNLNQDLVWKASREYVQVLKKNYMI
UniProt Q9UNM6: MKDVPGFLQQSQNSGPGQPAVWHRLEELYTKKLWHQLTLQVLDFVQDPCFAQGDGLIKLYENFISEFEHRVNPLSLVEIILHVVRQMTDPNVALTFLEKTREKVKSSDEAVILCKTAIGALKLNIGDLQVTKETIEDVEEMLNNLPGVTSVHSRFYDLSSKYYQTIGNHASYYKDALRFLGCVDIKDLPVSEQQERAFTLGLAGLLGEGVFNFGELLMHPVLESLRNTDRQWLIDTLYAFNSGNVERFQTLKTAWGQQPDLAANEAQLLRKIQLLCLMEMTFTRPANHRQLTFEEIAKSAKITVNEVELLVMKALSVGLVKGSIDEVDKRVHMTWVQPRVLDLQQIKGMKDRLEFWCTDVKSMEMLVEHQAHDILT
UniProt Q9UL33, whole entry: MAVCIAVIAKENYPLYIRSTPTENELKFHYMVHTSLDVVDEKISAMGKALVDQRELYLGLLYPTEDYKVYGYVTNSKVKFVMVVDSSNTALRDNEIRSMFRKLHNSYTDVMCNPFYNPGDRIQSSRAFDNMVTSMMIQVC
UniProt Q9ULV4, whole entry: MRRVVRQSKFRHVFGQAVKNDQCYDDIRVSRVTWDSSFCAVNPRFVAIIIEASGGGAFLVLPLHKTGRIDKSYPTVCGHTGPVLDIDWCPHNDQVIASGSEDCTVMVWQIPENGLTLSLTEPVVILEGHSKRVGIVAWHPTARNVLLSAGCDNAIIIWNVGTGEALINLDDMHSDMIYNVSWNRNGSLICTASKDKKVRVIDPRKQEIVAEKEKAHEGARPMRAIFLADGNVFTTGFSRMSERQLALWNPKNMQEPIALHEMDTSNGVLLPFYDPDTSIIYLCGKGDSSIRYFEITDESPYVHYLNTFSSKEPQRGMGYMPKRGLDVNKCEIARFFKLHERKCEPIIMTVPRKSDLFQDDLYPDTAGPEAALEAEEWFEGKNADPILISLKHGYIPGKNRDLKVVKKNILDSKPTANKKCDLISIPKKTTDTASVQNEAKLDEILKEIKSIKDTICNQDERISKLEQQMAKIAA
UniProt Q9ULR5: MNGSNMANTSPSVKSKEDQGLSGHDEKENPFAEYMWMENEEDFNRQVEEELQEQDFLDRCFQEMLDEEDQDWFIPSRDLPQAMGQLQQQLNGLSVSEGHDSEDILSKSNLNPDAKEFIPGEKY
UniProt Q9UKG1: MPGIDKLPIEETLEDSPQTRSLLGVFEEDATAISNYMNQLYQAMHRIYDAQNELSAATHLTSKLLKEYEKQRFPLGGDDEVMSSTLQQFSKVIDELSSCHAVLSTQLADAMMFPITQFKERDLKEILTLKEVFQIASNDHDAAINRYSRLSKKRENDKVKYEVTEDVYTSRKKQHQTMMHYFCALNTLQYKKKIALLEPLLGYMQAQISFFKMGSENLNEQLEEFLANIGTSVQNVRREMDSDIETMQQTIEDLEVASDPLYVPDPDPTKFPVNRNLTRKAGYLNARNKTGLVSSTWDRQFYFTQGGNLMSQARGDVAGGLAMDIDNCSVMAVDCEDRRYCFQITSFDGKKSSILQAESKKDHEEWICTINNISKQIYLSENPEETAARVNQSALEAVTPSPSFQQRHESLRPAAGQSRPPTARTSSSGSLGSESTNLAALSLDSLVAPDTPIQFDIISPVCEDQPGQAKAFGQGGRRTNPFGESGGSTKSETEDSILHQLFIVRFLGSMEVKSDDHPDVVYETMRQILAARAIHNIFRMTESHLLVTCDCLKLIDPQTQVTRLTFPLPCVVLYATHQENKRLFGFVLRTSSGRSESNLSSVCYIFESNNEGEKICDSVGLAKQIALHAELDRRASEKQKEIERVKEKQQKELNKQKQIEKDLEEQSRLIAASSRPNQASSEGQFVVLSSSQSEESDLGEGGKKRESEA
UniProt Q9Y223: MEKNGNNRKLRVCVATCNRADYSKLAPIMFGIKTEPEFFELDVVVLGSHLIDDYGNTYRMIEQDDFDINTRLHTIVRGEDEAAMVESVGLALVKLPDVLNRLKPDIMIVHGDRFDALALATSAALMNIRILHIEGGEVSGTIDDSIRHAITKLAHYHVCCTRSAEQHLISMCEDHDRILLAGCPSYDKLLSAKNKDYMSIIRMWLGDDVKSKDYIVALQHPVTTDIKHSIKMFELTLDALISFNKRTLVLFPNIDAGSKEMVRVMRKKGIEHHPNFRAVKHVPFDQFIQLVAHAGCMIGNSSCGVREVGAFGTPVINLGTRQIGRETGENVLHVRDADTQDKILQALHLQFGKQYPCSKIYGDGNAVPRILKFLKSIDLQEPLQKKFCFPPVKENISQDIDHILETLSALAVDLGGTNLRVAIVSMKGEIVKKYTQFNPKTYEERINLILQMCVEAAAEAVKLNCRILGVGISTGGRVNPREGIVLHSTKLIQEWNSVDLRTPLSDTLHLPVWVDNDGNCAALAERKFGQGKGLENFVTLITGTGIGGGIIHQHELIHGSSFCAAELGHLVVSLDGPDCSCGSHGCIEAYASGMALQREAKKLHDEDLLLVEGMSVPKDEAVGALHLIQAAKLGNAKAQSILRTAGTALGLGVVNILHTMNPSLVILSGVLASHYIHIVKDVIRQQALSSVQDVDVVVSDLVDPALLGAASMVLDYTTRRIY
UniProt Q9UK53: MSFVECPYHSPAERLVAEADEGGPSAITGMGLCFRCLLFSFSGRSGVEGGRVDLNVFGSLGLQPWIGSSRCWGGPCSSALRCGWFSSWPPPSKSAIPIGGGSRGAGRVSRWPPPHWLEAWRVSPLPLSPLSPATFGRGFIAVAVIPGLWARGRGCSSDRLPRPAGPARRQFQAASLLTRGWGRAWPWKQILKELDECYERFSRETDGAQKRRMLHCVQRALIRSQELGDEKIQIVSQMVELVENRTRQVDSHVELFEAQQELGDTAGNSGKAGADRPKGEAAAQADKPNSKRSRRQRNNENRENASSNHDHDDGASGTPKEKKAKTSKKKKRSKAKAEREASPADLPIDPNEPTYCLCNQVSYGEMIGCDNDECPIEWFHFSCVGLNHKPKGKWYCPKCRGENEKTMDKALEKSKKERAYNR
UniProt Q9UIQ6, whole entry: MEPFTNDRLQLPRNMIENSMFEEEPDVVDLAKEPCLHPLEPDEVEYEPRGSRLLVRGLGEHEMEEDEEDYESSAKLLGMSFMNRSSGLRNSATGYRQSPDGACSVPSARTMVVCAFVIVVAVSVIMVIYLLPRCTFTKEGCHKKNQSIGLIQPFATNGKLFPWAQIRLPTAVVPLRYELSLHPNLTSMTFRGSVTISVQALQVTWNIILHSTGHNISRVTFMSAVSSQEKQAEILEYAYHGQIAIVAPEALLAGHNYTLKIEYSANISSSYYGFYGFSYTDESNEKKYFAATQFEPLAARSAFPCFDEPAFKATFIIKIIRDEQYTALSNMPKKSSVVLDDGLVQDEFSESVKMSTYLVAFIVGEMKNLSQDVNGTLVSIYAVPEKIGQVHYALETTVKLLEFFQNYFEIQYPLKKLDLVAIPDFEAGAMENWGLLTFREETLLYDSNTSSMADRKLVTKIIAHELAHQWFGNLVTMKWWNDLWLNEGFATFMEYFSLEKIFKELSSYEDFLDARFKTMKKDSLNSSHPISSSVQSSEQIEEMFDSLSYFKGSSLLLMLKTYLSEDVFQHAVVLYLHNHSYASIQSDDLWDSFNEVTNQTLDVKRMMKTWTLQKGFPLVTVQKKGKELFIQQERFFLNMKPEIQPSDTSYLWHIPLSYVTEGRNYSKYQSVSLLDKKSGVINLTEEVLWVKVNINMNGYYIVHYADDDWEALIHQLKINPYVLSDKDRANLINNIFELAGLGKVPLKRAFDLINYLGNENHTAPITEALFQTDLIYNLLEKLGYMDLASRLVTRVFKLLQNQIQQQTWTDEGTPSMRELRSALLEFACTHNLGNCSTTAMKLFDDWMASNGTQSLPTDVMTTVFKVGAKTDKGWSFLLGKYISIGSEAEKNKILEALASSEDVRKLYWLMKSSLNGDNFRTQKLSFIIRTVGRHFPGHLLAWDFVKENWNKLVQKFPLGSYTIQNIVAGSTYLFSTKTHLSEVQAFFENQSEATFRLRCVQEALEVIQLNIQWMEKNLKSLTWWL
UniProt Q9UHY8: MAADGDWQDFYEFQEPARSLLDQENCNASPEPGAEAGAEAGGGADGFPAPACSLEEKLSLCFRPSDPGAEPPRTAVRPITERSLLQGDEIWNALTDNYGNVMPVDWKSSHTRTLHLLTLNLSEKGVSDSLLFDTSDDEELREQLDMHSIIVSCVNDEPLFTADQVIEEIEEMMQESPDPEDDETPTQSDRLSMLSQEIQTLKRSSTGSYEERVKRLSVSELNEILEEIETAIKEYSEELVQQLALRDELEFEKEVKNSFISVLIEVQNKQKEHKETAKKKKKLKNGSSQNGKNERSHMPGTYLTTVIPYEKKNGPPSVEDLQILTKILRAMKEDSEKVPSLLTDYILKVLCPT
UniProt Q9UK97: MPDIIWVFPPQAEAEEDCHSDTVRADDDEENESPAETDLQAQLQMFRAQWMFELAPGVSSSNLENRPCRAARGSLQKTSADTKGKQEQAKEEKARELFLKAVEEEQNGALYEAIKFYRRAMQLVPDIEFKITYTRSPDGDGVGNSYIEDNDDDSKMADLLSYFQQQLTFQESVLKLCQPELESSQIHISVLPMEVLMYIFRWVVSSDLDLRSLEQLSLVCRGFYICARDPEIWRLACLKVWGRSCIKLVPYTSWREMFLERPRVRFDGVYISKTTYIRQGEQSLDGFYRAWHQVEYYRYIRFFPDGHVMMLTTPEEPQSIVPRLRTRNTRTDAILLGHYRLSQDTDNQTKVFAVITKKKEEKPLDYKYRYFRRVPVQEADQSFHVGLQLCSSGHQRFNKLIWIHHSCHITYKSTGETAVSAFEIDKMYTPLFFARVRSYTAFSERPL

| Target | log2 fold change |
| --- | --- |
| ANKRD26 (peptide sequence: EYASSGPALQMK, peptide start residue: 602) (UniProt Q9UPS8) | 0.41 |
| ABT1 (peptide sequence: RVAASLHNTPMGAR, peptide start residue: 120) (UniProt Q9ULW3) | 0.512 |
| NARF (peptide sequence: VLGRPITAHLCTAK, peptide start residue: 182) (UniProt Q9UHQ1) | -0.944 |
| ASAP1 (peptide sequence: SFDLISHNR, peptide start residue: 384) (UniProt Q9ULH1) | -0.193 |
| EVL (peptide sequence: QVMEQHQQQR, peptide start residue: 140) (UniProt Q9UI08) | -0.75 |
| NRBP1 (peptide sequence: REEVNQR, peptide start residue: 68) (UniProt Q9UHY1) | 0.266 |
| PARP4 (peptide sequence: AHSPASLSFASYR, peptide start residue: 1333) (UniProt Q9UKK3) | -0.38 |
| PSMD13 (peptide sequence: FLGCVDIK, peptide start residue: 179) (UniProt Q9UNM6) | -0.154 |
| SUFU (peptide sequence: GLEINSKPVLPPINPQR, peptide start residue: 315) (UniProt Q9UMX1) | 0.224 |
| AK3 (peptide sequence: ITTHFELK, peptide start residue: 27) (UniProt Q9UIJ7) | -0.315 |
| ACIN1 (peptide sequence: KPSISITTESLK, peptide start residue: 861) (UniProt Q9UKV3) | -0.152 |
| POLG2 (peptide sequence: VDAGQPELLTER, peptide start residue: 25) (UniProt Q9UHN1) | 0.17 |
| UniProt Q9UK39 (peptide sequence: QFCIAVTHLK, peptide start residue: 279) | -0.653 |
| INTS6 (peptide sequence: VVQETGIK, peptide start residue: 478) (UniProt Q9UL03) | 0.355 |
| TRIM33 (peptide sequence: KPMDLSTVK, peptide start residue: 999) (UniProt Q9UPN9) | -0.411 |
| UniProt Q9UK76 (peptide sequence: SSGGREDLESSGLQRR, peptide start residue: 70) | -0.68 |
| TRAPPC2L (peptide sequence: KLHNSYTDVMCNPFYNPGDR, peptide start residue: 102) (UniProt Q9UL33) | -0.166 |
| FAF1 (peptide sequence: LSLEQALPPEPK, peptide start residue: 555) (UniProt Q9UNN5) | -0.901 |
| UniProt Q9UQ88 (peptide sequence: SVEEFQCLNR, peptide start residue: 422) | 0.12 |
| NIP7 (peptide sequence: MRPLTEEETR, peptide start residue: 1) (UniProt Q9Y221) | 0.621 |
| L1RE1 (peptide sequence: YQPLQNHAK, peptide start residue: 329) (UniProt Q9UN81) | -0.103 |

| Target | log2 fold change |
| --- | --- |
| MAGED2 (peptide sequence: SSEAVIWEVLRK, peptide start residue: 386) (UniProt Q9UNF1) | -0.242 |
| SLC12A6 (peptide sequence: VHMTWTK, peptide start residue: 1045) (UniProt Q9UHW9) | -0.36 |
| NUFIP1 (peptide sequence: FTDFSLPPSRK, peptide start residue: 151) (UniProt Q9UHK0) | -0.242 |
| TMCO1 (peptide sequence: KETITESAGR, peptide start residue: 105) (UniProt Q9UM00) | 0.354 |
| BSN (peptide sequence: EAVERLQK, peptide start residue: 3471) (UniProt Q9UPA5) | -0.379 |
| UniProt Q9UII2 (peptide sequence: HHEEEIVHHK, peptide start residue: 73) | 0.131 |
| SHOC2 (peptide sequence: SIHILPSSIK, peptide start residue: 111) (UniProt Q9UQ13) | -0.403 |
| CORO1C (peptide sequence: GLDVNKCEIAR, peptide start residue: 324) (UniProt Q9ULV4) | -0.837 |
| UniProt Q9ULR5 (peptide sequence: EFIPGEKY, peptide start residue: 116) | 0.0438 |
| DPP7 (peptide sequence: GALLVFAEHR, peptide start residue: 99) (UniProt Q9UHL4) | 0.0565 |
| AGAP1 (peptide sequence: NNSSGRVPTII, peptide start residue: 847) (UniProt Q9UPQ3) | -0.344 |
| MED23 (peptide sequence: ENSPEHWLQNDWHTK, peptide start residue: 906) (UniProt Q9ULK4) | -0.29 |
| ENOPH1 (peptide sequence: IGHKVESESYR, peptide start residue: 184) (UniProt Q9UHY7) | 1.03 |
| ZC3H4 (peptide sequence: AVNIPLDPLPGHPLRDPR, peptide start residue: 936) (UniProt Q9UPT8) | -0.132 |
| APPL1 (peptide sequence: TNPFGESGGSTK, peptide start residue: 479) (UniProt Q9UKG1) | 0.265 |
| TUBD1 (peptide sequence: AVLVDMEPK, peptide start residue: 63) (UniProt Q9UJT1) | 0.242 |
| DDX25 (peptide sequence: TAAFVLAMLSR, peptide start residue: 144) (UniProt Q9UHL0) | 0.299 |
| UniProt Q9Y242 (peptide sequence: LRVDKAPLTPTGNR, peptide start residue: 255) | -0.115 |
| DICER1 (peptide sequence: LPSDPFTHLAPK, peptide start residue: 641) (UniProt Q9UPY3) | -0.174 |
| DBR1 (peptide sequence: LWNMPENNGLHAR, peptide start residue: 302) (UniProt Q9UK59) | -0.334 |
| UNC13A (peptide sequence: LKDHMVR, peptide start residue: 1335) (UniProt Q9UPW8) | 0.188 |

An excerpt of these results, bar-delimited.
Target | log2 fold change
SLC12A6 (peptide sequence: VHMTWTK, peptide start residue: 1045) (UniProt Q9UHW9) | -0.36
NUFIP1 (peptide sequence: FTDFSLPPSRK, peptide start residue: 151) (UniProt Q9UHK0) | -0.242

(further entries)

| Target | log2 fold change |
| --- | --- |
| RUVBL2 (peptide sequence: FVQCPDGELQKR, peptide start residue: 224) (UniProt Q9Y230) | 0.107 |
| UniProt Q9UPN6 (peptide sequence: QAEPEEKVPHLIDHQISSGENTR, peptide start residue: 763) | -0.26 |
| G3BP2 (peptide sequence: NDRGPGGPR, peptide start residue: 430) (UniProt Q9UN86) | -0.436 |
| GNE (peptide sequence: VAIVSMKGEIVKK, peptide start residue: 421) (UniProt Q9Y223) | 0.764 |
| NAGK (peptide sequence: AGVDPLVPLR, peptide start residue: 60) (UniProt Q9UJ70) | 0.0988 |
| FBXO4 (peptide sequence: LEAAILSGWK, peptide start residue: 23) (UniProt Q9UKT5) | -0.0486 |
| ING1 (peptide sequence: GEAAAQADKPNSK, peptide start residue: 279) (UniProt Q9UK53) | 0.183 |
| DCTN4 (peptide sequence: RNYMPLAFSDKYGLGTR, peptide start residue: 171) (UniProt Q9UJW0) | -0.358 |
| LNPEP (peptide sequence: LLGMSFMNR, peptide start residue: 76) (UniProt Q9UIQ6) | -0.0153 |
| RPUSD1 (peptide sequence: YRFPELADPDTCYGFR, peptide start residue: 46) (UniProt Q9UJJ7) | 0.207 |
| PA2G4 (peptide sequence: MGVVECAK, peptide start residue: 291) (UniProt Q9UQ80) | 0.13 |
| DDX41 (peptide sequence: QTHGILEYYCR, peptide start residue: 272) (UniProt Q9UJV9) | -0.363 |
| PHF8 (peptide sequence: ATLIIRPK, peptide start residue: 666) (UniProt Q9UPP1) | -0.113 |
| FEZ2 (peptide sequence: SHMPGTYLTTVIPYEK, peptide start residue: 296) (UniProt Q9UHY8) | -0.376 |
| ICK (peptide sequence: LNHANVVK, peptide start residue: 68) (UniProt Q9UPZ9) | 0.175 |
| MBD1 (peptide sequence: AVDPGLPSVK, peptide start residue: 529) (UniProt Q9UIS9) | 0.382 |
| GAB2 (peptide sequence: NNTVIDELPFK, peptide start residue: 532) (UniProt Q9UQC2) | 0.23 |
| FBXO9 (peptide sequence: RAMQLVPDIEFK, peptide start residue: 119) (UniProt Q9UK97) | 0.304 |
| ACAD8 (peptide sequence: GTPGLSFGKK, peptide start residue: 223) (UniProt Q9UKU7) | 0.15 |
| UniProt Q9UKT7 (peptide sequence: DSDRNSSEEGTAEK, peptide start residue: 7) | 0.665 |

3 records picked at random from those above:

| Target | log2 fold change |
| --- | --- |
| GAB2 (peptide sequence: NNTVIDELPFK, peptide start residue: 532) (UniProt Q9UQC2) | 0.23 |
| G3BP2 (peptide sequence: NDRGPGGPR, peptide start residue: 430) (UniProt Q9UN86) | -0.436 |
| UniProt Q9UKT7 (peptide sequence: DSDRNSSEEGTAEK, peptide start residue: 7) | 0.665 |

Source: the supplement of paper PMC12819154, “High-throughput peptide-centric local stability assay extends protein–ligand identification to membrane proteins, tissues and bacteria” (Nature Structural & Molecular Biology, 2025)
